According to patent EP2116236A1, “Bisbenzamidine derivatives for use as antioxidant” (Université de Mons-Hainaut, priority 2008, dated 2009):
Some results were stated once for a whole list of compounds, not compound by compound.

test: superoxide dismutase activity: inhibition of pyrogallol auto-oxidation; format: biochemical; conditions: result in words
Experimental: The pyrogallol auto-oxidation was measured at 420 nm according to the procedure Marklund & Marklund as reported in Vamecq et al. (2003). The incubation medium comprised TRIS saline buffer at pH 7.4 (5 mM TRIS, 50 mM NaCl) with either the vehicle (DMSO) or one of the compounds (final concentration 0.5 mM ) dissolved in DMSO. The reaction was triggered by the addition of pyrogallol (0.750 mM).
The results are given as percent inhibition of the rate of pyrogallol auto-oxidation measured during the first two minutes.

| SMILES | scavenging activity toward the superoxide anion |
| --- | --- |
| N=C(N)c1ccc(NCCNc2ccc(C(=N)N)cc2)cc1 [Compound 2, 4,4'-(1,2-ethanediyldiimino)bisbenzenecarboximidamide] | very active scavengers of the superoxide anion |
| CN(CCN(C)c1ccc(C(=N)N)cc1)c1ccc(C(=N)N)cc1 [Compound 3, 4,4'-[1,2-ethanediyl (N,N'-dimethyl bisnitrilo)]bis(benzenecarboximidamide)] | very active scavengers of the superoxide anion |
| CN(CCNc1ccc(C(=N)N)cc1)c1ccc(C(=N)N)cc1 [Compound 4, 4,4'-(N-methyl 1,2-ethanediyldiimino)bis(benzenecarboximidamide)] | very active scavengers of the superoxide anion |
| CCN(CCNc1ccc(C(=N)N)cc1)c1ccc(C(=N)N)cc1 [Compound 5, 4,4'-(N-ethyl-1,2-ethanediyldiimino)bis(benzenecarboximidamide)] | very active scavengers of the superoxide anion |
